Experimental data from patent publication US6046167A, “Peptide YY analogs” (University of Cincinnati, priority 1998, dated 2000).
Not every detail of the peptide structures is certain; ends, links or a residue may be inferred.

System: rat jejunal mucosa
Test: antisecretory activity compared to PYY (short circuit current in rat jejunal mucosa, Ussing chamber)
Format: cell-based

With CCCC[C@H](NC(=O)[C@H](CO)NC(=O)[C@H](C)NC(C)=O)C(=O)N[C@@H](CCCNC(=N)N)C(=O)N[C@@H](Cc1c[nH]cn1)C(=O)N[C@@H](Cc1ccc(O)cc1)C(=O)N[C@@H](CCCC)C(=O)N[C@@H](CC(N)=O)C(=O)N[C@@H](Cc1c[nH]c2ccccc12)C(=O)N[C@@H](CCC)C(=O)N[C@H](C(=O)N[C@@H](CCCNC(=N)N)C(=O)N[C@@H](CCC(N)=O)C(=O)N[C@@H](CCCNC(=N)N)CN[C@@H](Cc1ccc(O)cc1)C(N)=O)[C@@H](C)O [Example 7, N-α-Ac-[Nle^24,28, Trp^30, Nva^31, .psi.^35/36]PYY(22-36)-NH2] the “antisecretory activity (potency and duration) compared to PYY” value was “more potent and longer lasting antisecretory agent when compared to PYY”.
